Results are given in words; binding and its absence hold for the method and conditions named.
Target: tPA
Test: ELISA: tPA coated, detection with peroxidase-conjugated anti-mouse IgG and OPD, OD at 490 nm

binding: no binding
B1: mouse mAb anti-FXI 34.2 (antibody, V domains shown)
VH: QVQLQQPGSELVRPGASVKLSCKASGYTFTRYWMHWVKQRHGQGLEWIGNIYPDSDSTNYDEKFRTKATLTADTSSSTAYMHLSSLTSEDSAVYYCTRMGFYAMDYWGQGTSVTVSS
VL: NIVMTQSPKSMSMSVGERVTLSCKASENVVTYVSWFQHKPEQSPKLLIYGASNRYTGVPDRFTGSGSATDFTLTISSVQAEDLADYHCGQSYSYPLTFGAGTKLELKR
notes: Mouse IgG purified from hybridoma supernatant by protein G

Source: patent publication US20190106509A1 (PROTHIX B V, published 2019)
